{"source": "patent US5607926A", "about": "“Cephalosporin antibiotics” (Microcide Pharmaceuticals, Inc., priority 1995, dated 1997)", "tested_on": "E. coli ATCC 25922", "assay": "In vitro antibacterial evaluation, MIC by agar dilution, E. coli ATCC 25922", "assay_type": "cell-based", "conditions": "E. coli in addition to Gram-positive organisms", "procedure": "The compounds of the invention were evaluated against several β-lactamresistant bacteria strains by determining the minimum inhibitory concentration (MIC, μg/ml) of each compound with respect to each strain. The MIC, the lowest concentration of antibiotic which inhibits growth of the test organism, was determined by the agar dilution method.\nTo determine the MIC for bacterial isolates, the test compound was incorporated in a series of two-fold dilutions into liquified Mueller-Hinton agar. Upon solidification, a number of different bacterial strains were spot inoculated with a replicating device onto the agar surface. […] The procedures used in these studies have been standardized by the National Committee for Clinical Laboratory Standards (NCCLS), as per the NCCLS publication entitled METHODS FOR DILUTION ANTIMICROBIAL SUSCEPTIBILITY TESTS (1991), which is incorporated herein by reference.\nAliquots of antimicrobial agents were prepared in phosphate buffered saline (PBS) at pH 7.2. Tween 20 or DMSO was used as a solubilizing vehicle as needed. Standard methods of vortexing, sonicating and gentle heat were used to facilitate solubilizing the test agent. […]\nDisposable sterile 1 μL loops were used to inoculate test plates, with each isolate in a designated grid on the agar plate. […] Endpoints were assessed as the minimum inhibitory concentration (MIC) of antimicrobial agent.", "note": "For at least one compound, name, drawing or mass did not settle the structure."}
{"smiles": "Nc1nc(/C(=N/O)C(=O)N[C@@H]2C(=O)N3C(C(=O)O)=C(Sc4ccccc4I)CS[C@H]23)cs1", "note": "[Cmpd 22, (7R)-7-[(Z)-2-(aminothiazol-4-yl)-2-(hydroxyimino)acetamido]-3-(o-iodophenylthio)-3-cephem-4-carboxylic acid]", "values": [{"measurement": "activity against E. coli", "result": "effective against E. coli in addition to Gram-positive organisms"}]}
